Reference: PMC7498459
No constants are given. Whether binding was seen depends on the method and setting. In cells and extracts the contact can be indirect. These calls come from enrichment with a bait or labelling near it, and not all partners need be listed.

Biological target: dihydrolipoamide acetyltransferase (pyruvate dehydrogenase complex—enzyme 2) (L. innocua (endogenous in L. innocua DSM 20649))
Test: affinity purification with mass spectrometry; immunomagnetic separation (IMS): SureBeads Protein A magnetic beads coated with 10 µg GSM133-A4 scFv-Fc (anti-PDC-E2); cytoplasmic preparation of L. innocua DSM 20649 diluted 1:2 in PBS, 1 h; elution with glycine 20 mM pH 2.0; bands cut from SDS-PAGE, MALDI-TOF peptide mass fingerprinting

B1: PDC-E1α (enzyme, UniProt A0ACH1DC28 1-371)
chain: MASKTKKAIIDVKKQFEAVHKQFELVQILNEKGEIVNPDLMPDLTDDELVELMTRMVWTRVLDQRSISLNRQGRLGFYAPTAGQEASQLASHYALEKHDYILPGYRDVPQLIWHGLPLTKAFLFSRGHFVGNQFPEDLNVLSPQIIIGAQIVQAAGVALGLKKRKKDAVVITYTGDGGSSQGDFYEGMNFAGAYHAPAIFVVQNNKFAISTPREKQSAAETLAQKAVAAGIPGVQVDGMDPLAVYAVTKFARERAVAGEGPTLIETMTYRYGPHTLSGDDPTRYRTKELDGEWELKDPIVRFRTFLEGKGLWNEEKENAVIDQAKEEIKVAIKEADATPKQTVTDLLKNMYETPTAPIKEQLAIYEAKESK
**Q.** Which binding does the source give for B1 here?
**A.** The binding was “binds”.
